Assay results: PubChem BioAssay AID652054 (National Center for Advancing Translational Sciences (NCATS), 2013)
The whole screen tested about 360,000 compounds, of which about 9,100 (2.5%) were called active. The shares of active, inactive and inconclusive entries below differ from those in the screen. No stated cut-off is given here; in the data, active means max response below about -50%; inconclusive means no clear call, values can overlap the other calls; inactive means above that.

Sequences of proteins named here, by UniProt entry; tags and fusion partners are left off.
UniProt P35462, whole entry, looked up: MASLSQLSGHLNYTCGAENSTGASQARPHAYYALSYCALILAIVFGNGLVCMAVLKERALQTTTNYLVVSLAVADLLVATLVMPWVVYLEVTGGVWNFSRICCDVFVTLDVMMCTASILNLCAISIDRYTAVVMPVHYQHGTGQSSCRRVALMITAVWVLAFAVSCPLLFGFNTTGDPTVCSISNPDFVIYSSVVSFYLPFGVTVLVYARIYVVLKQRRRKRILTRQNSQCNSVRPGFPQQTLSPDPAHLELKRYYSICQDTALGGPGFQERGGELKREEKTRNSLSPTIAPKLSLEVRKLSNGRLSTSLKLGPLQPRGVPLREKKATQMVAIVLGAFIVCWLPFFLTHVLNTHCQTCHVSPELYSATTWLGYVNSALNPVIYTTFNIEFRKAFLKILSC

Molecular target: D(3) dopamine receptor (Homo sapiens) (UniProt P35462)
Assay: qHTS of D3 Dopamine Receptor Antagonist: qHTS
Settings: D3R cells, DiscoveRx beta-arrestin luminescence, antagonist mode; active compounds read low
In short: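 Cells expressing the human receptor were seeded at 1500 cells/well, incubated overnight at 37 degrees C in 5% CO2, then exposed to library compounds with dopamine controls for 90 minutes at 37 degrees C before luminescent detection.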
On the % scale 0 is the no-effect control and ±100 the full control effect.

Max response, negative = inhibition, active:
NCCOc1ccccc1Cc1ccccc1 -64%, CC[C@@]12C(=O)N(c3ccccc3)C(=O)N1[C@H](c1ccc(Br)cc1)[C@@H]1C(=O)N(C(C)(C)C)C(=O)[C@@H]12 -54%, COC(=O)c1cc(Br)c(=O)n(Cc2ccco2)c1 -51.9%, O=C(c1ccc(CN2CCc3ccccc3C2)cc1)N1CCN(c2ccccc2)CC1 -62.3%, CCc1cccc(NC(=O)CN(C)S(=O)(=O)c2cnc[nH]2)c1 -52.3%, COC(=O)/C=c1\sc2ncnn2c1=O -68.8%, Cc1ccccc1OCCN1CCC(Cc2ccccc2)CC1 -90.7%, O=[N+]([O-])c1cccc(COc2cccc(CN3CCOCC3)c2)c1 -64.6%, Cc1cc(C(=O)N/N=C/c2cc([N+](=O)[O-])ccc2O)c2ccccc2n1 -64.5%

Max response, negative = inhibition, inconclusive:
Cc1ccc(S(=O)(=O)Nc2ccc3cc([N+](=O)[O-])ccc3c2[N+](=O)[O-])cc1 -34.9%, C[C@H](CO)N1C[C@H](C)[C@@H](CN(C)C(=O)Nc2cc(F)ccc2F)Oc2ncc(-c3cccc(F)c3)cc2C1=O -40%, O=C(Oc1c(CN2CCOCC2)cc(Cl)c2cccnc12)c1ccccc1 -44.1%, CCC[n+]1cn(/C(C(=S)Nc2cccc(Cl)c2C)=C(/[O-])c2ccc(OC)c(OC)c2)c2ccccc21 -30.1%, COc1cc(C(=O)Nc2cc(S(C)(=O)=O)ccc2Cl)ccc1OCC(=O)N1CCOCC1 -37.1%, NC(=O)C1=C[C@@H](c2ccccc2)C[C@@H](OCc2ccc(CO)cc2)O1 -41.1%, CCOc1ccc(CN2CCN(Cc3cccc4nonc34)CC2CCO)cc1 (configuration not stated) -35.7%, CCC(CC)COC(=O)C(C#N)c1nc2ccccc2nc1N1CCOCC1 (configuration not stated) -41.1%, O=C(CCN1CCN(Cc2ccccc2)CC1)NNC(=O)Nc1cccc(Cl)c1 -34.4%, CCOC(=O)[C@@H]1[C@H]2COc3ccc(Br)cc3[C@H]2N2C(=O)N(c3ccc(F)cc3)C(=O)[C@@]12C -35.4%, CSc1ccc(NC(=O)C2(C)CCN2C(=O)c2ccccc2CCc2ccccc2)cc1 (configuration not stated) -36.9%, CCN(CC)c1ccc(/C=N/NC(=O)c2ccc(Br)o2)cc1 -47.3%, CCOc1ccc(N(CC(=O)NC2CCCC2)S(=O)(=O)c2c(C)noc2C)cc1 -31.1%, COc1ccc(C(=O)NCCNC(C)=O)cc1S(=O)(=O)NCc1ccc(Cl)cc1 -38.5%, COc1ccc(C(=O)/C=C/C(=O)N(CC(=O)NC2CCCCC2)CC2CCCO2)c(O)c1 (configuration not stated) -48%, O=C(Nc1ccc(Cc2ccncc2)cc1)c1cccc([N+](=O)[O-])c1 -30.4%, COc1cc(SC)ccc1C(=O)N(C)CC(=O)Nc1cccc2ccccc12 -33.3%, O=C(CCn1c(=O)c2ccccc2n(Cc2ccccc2)c1=O)NCc1ccc2c(c1)OCO2 -40.2%, CC(C)c1ccc(C(=O)CN2C(=O)NC3(CCc4ccccc43)C2=O)cc1 (configuration not stated) -33.8%, COc1ccccc1NC(=S)N(Cc1ccco1)Cc1cc2ccc(C)c(C)c2[nH]c1=O -30.9%, C[C@@H]1COc2cccc(N3CCN(Cc4ccccc4F)CC3)c2S(=O)(=O)N1 -45.1%, O=C(NC(=S)NNC(=O)c1ccccc1[N+](=O)[O-])c1ccccc1 -42.8%, Cc1[nH]n(-c2ccccc2)c(=S)c1C=Nc1ccc([N+](=O)[O-])cc1 -33.6%

Max response, negative = inhibition, inactive:
CN(C)CCNc1ccc(-c2n[nH]c(=O)c3ccccc23)cc1[N+](=O)[O-] -21.7%, COc1ccccc1OCCNS(=O)(=O)c1ccc2oc3ccccc3c2c1 7.75%, CCCCC(=O)Nc1ccc(NC(=O)c2ccccc2OC)cn1 19.2%, O=C(Nc1cccc(S(=O)(=O)NC2=NCCC2)c1)c1ccc(F)cc1F 5.01%, CCNC(=S)N/N=C1\CCCCc2ccccc21 -6.16%, COc1ccc(N=Nc2cc(C)c(O)c(CN3CCCCC3)c2)cc1 3.06%, Cc1cnc(C(=O)Nc2cccc3cccnc23)cn1 8.03%, CC(C)CCNC(=O)C1CCN(Cc2cccc(OCc3ccccc3)c2)CC1 -20.3%, COc1ccc(-c2cc(C(=O)N3CCN(c4ccccc4OC)CC3)no2)cc1 4.41%, CCOc1ccc(NC(=O)Cn2cc(C(C)=O)c3ccccc32)cc1 2.54%
